In US7858322B2, “Method of determining inhibition of binding to TRPM7 protein” (NoNo, Inc., priority 2003, dated 2010):
Part of at least one peptide drawing is inferred or uncertain, most often the ends. Residues, ends and D or L forms follow the SMILES beside them. *: point of attachment. Biotin = O=C1N[C@H]2[C@H](CS[C@H]2CCCCC(=O)*)N1

Sequences of proteins named here, by UniProt entry; tags and fusion partners are left off. A line that says so, or that is headed by a name, gives the form on record, which may keep a tag or linker. Residues count along the entry.
UniProt Q92743, 358-473: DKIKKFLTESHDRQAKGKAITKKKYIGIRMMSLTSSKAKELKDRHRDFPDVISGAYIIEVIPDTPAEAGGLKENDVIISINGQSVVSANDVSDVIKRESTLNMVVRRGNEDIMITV
UniProt Q8TEW8, with tags, fused parts or gaps: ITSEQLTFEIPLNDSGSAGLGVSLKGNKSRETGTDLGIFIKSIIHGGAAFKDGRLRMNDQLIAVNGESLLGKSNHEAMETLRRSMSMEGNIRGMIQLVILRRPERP
UniProt Q8TEW0, with tags, fused parts or gaps R682S: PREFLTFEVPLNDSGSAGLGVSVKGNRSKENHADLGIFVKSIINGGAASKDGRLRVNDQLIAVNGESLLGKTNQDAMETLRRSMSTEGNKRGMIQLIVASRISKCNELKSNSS

Tests used:
Experiment in all cases: G3 assay, binding of biotinylated peptide to GST-PDZ fusion
[1] = target: T1, NSP [novel serine protease] domain 1 (Homo sapiens, UniProt Q92743); settings: NSP domain 1; 0.1 μM peptide; OD at least 2-fold over GST-only OD and/or ED50 of less than 0.17 μM
T1 construct: made in house; host or cells: E. coli (DH5α, BL21 or JM109)

[2] = target: T2, SITAC-18 d1 (Homo sapiens, UniProt Q9H190); settings: G3 titration, SITAC-18 d1 (122.2)
T2 construct: made in house; host or cells: E. coli (DH5α, BL21 or JM109)
T2 sequence (Q9H190 104-195): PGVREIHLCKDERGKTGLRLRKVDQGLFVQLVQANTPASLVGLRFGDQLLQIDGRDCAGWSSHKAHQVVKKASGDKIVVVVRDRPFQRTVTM

[3] = target: T3, SITAC-18 d2 (Homo sapiens, UniProt Q9H190); settings: SITAC-18 domain 2; 0.1 μM peptide; OD at least 2-fold over GST-only OD and/or ED50 of less than 0.17 μM
T3 construct: made in house; host or cells: E. coli (DH5α, BL21 or JM109)
T3 sequence (Q9H190 with tags, fused parts or gaps): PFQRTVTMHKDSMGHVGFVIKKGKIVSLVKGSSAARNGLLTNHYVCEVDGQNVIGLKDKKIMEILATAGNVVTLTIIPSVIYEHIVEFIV

[4] = target: T4, PAR3L d3 (Homo sapiens, UniProt Q8TEW8); settings: PAR3L domain 3; 0.1 μM peptide; OD at least 2-fold over GST-only OD and/or ED50 of less than 0.17 μM
T4 construct: made in house; host or cells: E. coli (DH5α, BL21 or JM109)

[5] = target: T5, INADL d3 (Homo sapiens, UniProt Q8NI35)
T5 construct: made in house; host or cells: E. coli (DH5α, BL21 or JM109)
T5 sequence (Q8NI35 with tags, fused parts or gaps): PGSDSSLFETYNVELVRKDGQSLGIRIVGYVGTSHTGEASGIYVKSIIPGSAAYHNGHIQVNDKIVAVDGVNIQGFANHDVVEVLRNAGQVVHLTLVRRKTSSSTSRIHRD
Protocol: (§1) The G3 assay is identical to the G0 assay with the following exceptions. The peptides are typically present at 0.1 μM rather than 20 μM. The peptides are also pre-incubated with the HRP-streptavidin prior to adding to the assay plate. In the G0 assay, free peptide is incubated with the PDZ proteins prior to the addition of the HRP-streptavidin. Thus, for the G0 assay one can lose signal if the bound peptide dissociates from the PDZ protein prior to the addition of the HRP-streptavidin. In the G3 modified assay the HRP-streptavidin/peptide complex is added to the plate in one step, thus increasing the likelihood that all the bound peptide will be bound to HRP-streptavidin. The G3 modified assay increases the chance of observing weak interaactions.
(§2) Reagents and Supplies • Nunc MaxiSorp 96 well Immuno-plate, Nunc • PBS pH 7.4 (phosphate buffered saline, 8 g NaCl, 0.29 g KCl, 1.44 g Na2HPO4, 0.24 g KH2PO4, add H2O to 1 liter and pH 7.4; 0.2 μm filter) • Assay Buffer: 2% BSA in PBS (20 g of bovine serum albumin per liter PBS, fraction V, ICN Biomedicals, cat#IC15142983 • Goat anti-GST polyclonal Ab, stock 5 mg/ml, stored at 4° C., Amersham Pharmacia cat#27-4577-01 • Dilute 1:1000 in PBS, final concentration 5 μg/ml. • HRP-Streptavidin, 2.5 mg/2 ml stock stored at 4° C., Zymed cat#43-4323, dilute 1:2000 into Assay buffer, final concentration of 0.5 μg/ml • Wash Buffer, PBS • Biotinylated peptides (HPLC purified, stock solution stored in −20° C. freezer) • GST-PRISM proteins (stock stored at −80° C., after 1st thaw store in −10° C. freezer) • TMB (3,3′,5,5′, teramethylbensidine), tablets, Sigma cat.#T5525 • Per plate, dissolve 1 tablet in 1 ml DMSO, add 9 ml Citrate/Phosphate buffer pH 5.4 and 2 μL H2O2 • 0.18M H2SO4, Sigma cat.#S 1526 • 12-w multichannel pipettor & tips • 50 ml reagent reservoirs, Costar#4870 • 50, 15 ml polypropylene conical tubes • Costar Transtar 96 Costar #7605 • Transtar 96 Cartridge Costar #7610 • Molecular Devices microplate reader (450 & 650 nm filters) with SoftMax Pro software • When using reagents stored at or 4° C. or −20° C., remove & keep on ice
(§3) Protocol • 1. Coat plate with 100 μl of 5 μg/ml anti-GST, overnight at 4° C. • 2. Dump contents of plate & out tap dry on paper towels • 3. Block with 200 μl Assay Buffer for 2 hrs at room temperature • 4. Prepare proteins at 5 μg/ml in Assay Buffer • 5. Wash 3× with cold PBS (4° C.), avoiding letting the plates dry out • 6. Add proteins at 50 μl per well, incubate 1 to 2 hrs at 4° C. • 7. Prepare peptides to desired concentration in Assay Buffer • 8. Wash 3× with cold PBS (4° C.), avoiding letting the plates dry out • 9. Add HRP-Streptavidin/peptide complex [prepared by incubating for 20 minutes at room temperature HRP-Streptavidin (1:2000) with the desired biotin-peptide concentration for 20 minutes at room temperature] at 50 μl per well on ice • 10. Place at room temperature for exactly 30 minutes • 11. Promptly wash 5× with PBS at room temperature • 12. Add 100 μl/well TMB substrate (write time on plate) • 13. Incubate in dark at room temperature for a maximum of 30 minutes • 14. Read plate at 25 minutes (650 nm), optional • 15. Stop reaction with 100 μl of 0.18 M H2SO4, 30 minutes after adding TMB Take last reading at 450 nm soon after stopping reaction
(§4) The G3 assay was performed using 0.1 μM peptide representing 11 amino acids of Tat fused to the final 9 amino acids of TRPM7 ([…]; SEQ ID NO:258).
(§5) The G3 assay was performed on a subset of the PDZ domains as in Example II except that the concentration of peptide was 0.002 μM, […], 0.1 μM, 0.2 μM, 1 μM, and 2 μM.
(§6) to calculate the EC50 for the binding of the peptides to the PDZ domains.
(§7) FIGS. 10A and 10B show graphs of the titrations for the Peptide #1829 with ZO-1 d2 and for the Peptide #1839 with INADL d3.

[6] = target: T6, ZO-1 d2 (Homo sapiens, UniProt Q07157, DEL264-264)
T6 construct: made in house; host or cells: E. coli (DH5α, BL21 or JM109)
T6 sequence (Q07157 with tags, fused parts or gaps DEL264-264): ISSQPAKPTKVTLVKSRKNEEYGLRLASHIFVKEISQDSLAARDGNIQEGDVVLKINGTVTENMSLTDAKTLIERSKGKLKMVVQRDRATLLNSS
Protocol: as §1, §2, §3, §4, §5, §6, §7

[7] = target: T7, PAR3 d3 (Homo sapiens, UniProt Q8TEW0, R682S)
T7 construct: made in house; host or cells: E. coli (DH5α, BL21 or JM109)

CSCC[C@H](NC(=O)[C@H](CC(C)C)NC(=O)[C@H](CCCNC(=N)N)NC(=O)[C@@H](NC(=O)[C@H](CO)NC(=O)[C@H](CC(N)=O)NC(=O)[C@@H](NC(=O)[C@H](CO)NC(=O)[C@H](CCCNC(=N)N)NC(=O)[C@H](CCCNC(=N)N)NC(=O)[C@H](CCCNC(=N)N)NC(=O)[C@H](CCC(N)=O)NC(=O)[C@H](CCCNC(=N)N)NC(=O)[C@H](CCCNC(=N)N)NC(=O)[C@H](CCCCN)NC(=O)[C@H](CCCCN)NC(=O)[C@H](CCCNC(=N)N)NC(=O)CNC(=O)[C@H](Cc1ccc(O)cc1)NC(=O)CCCC[C@@H]1SC[C@@H]2NC(=O)N[C@@H]21)[C@@H](C)O)C(C)C)C(=O)N[C@@H](CC(C)C)C(=O)O [Tat-TRPM7 peptide] (Biotin-YGRKKRRQRRRSTNSVRLML-OH)
PDZ domains demonstrated to interact with Tat-TRPM7 peptide [1]: NSP [novel serine | ODmax (450 nm) [2]: 1.70 | PDZ domains demonstrated to interact with Tat-TRPM7 peptide [3]: SITAC-18 | PDZ domains demonstrated to interact with Tat-TRPM7 peptide [4]: PAR3L | ODmax (450 nm) ([5]; G3 titration, INADL d3): 1.90 | PDZ domains demonstrated to interact with Tat-TRPM7 peptide ([5]; INADL domain 3, 0.1 μM peptide, OD at least 2-fold over GST-only OD and/or ED50 of less than 0.17 μM): INADL | ODmax (450 nm) ([6]; G3 titration, ZO-1 d2): 2.20 | PDZ domains demonstrated to interact with Tat-TRPM7 peptide ([6]; ZO-1 domain 2, 0.1 μM peptide, OD at least 2-fold over GST-only OD and/or ED50 of less than 0.17 μM): ZO-1 | ODmax (450 nm) ([7]; G3 titration, PAR3 d3 (278.1)): 2.50 | PDZ domains demonstrated to interact with Tat-TRPM7 peptide ([7]; PAR3 domain 3, 0.1 μM peptide, OD at least 2-fold over GST-only OD and/or ED50 of less than 0.17 μM): PAR3
